Values from PubChem BioAssay AID504804 (Drosophila RNAi Screening Center, 2011).
The screen tested about 19,000 reagents; below is a random part of those that have a named target and a result. Of all reagents, 47 (0.25%) were called active. 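Signals are raw, not normalised; exact z-scores behind calls not deposited; actives needed confirmation, so some wells reaching 2 SD are inactive.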 Entries without a mark were called inactive. Names joined by + are all predicted targets of the reagent.

- Purpose: 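Knock-downs shielding fly cells from apoptosis caused by DNA damage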 (primary screen)
- Cell system: Drosophila Kc cells
- Reagents: long dsRNA against Drosophila genes, 0.5 µg dsRNA per well
- Timing: 96 h (48 h knock-down, then 48 h drug)
- Challenge: doxorubicin 5 µg/ml for 48 h, added 48 h after dsRNA
- Measurement: 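Viability measured as cellular ATP by luminescence after 48 h knock-down then 48 h doxorubicin at 5 µg/ml; unnormalised plate counts for each replicate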
- Reading the numbers: raw ATP luminescence: higher = more viable cells, protection from doxorubicin
- Rule for the call: 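z-score of 2 or more over plate mean in both duplicates, retained only when retests and separate dsRNAs confirm the protection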

no.	gene	amplicon	raw ATP luminescence, replicate 1	raw ATP luminescence, replicate 2
1	eater	DRSC15969	49920	42120
2	CG33796	DRSC09417	1.09e5	83177
3	CG6044	DRSC04522	27217	43497
4	CG14397	DRSC02381	69850	57123
5	CG6937	DRSC16140	63920	55990
6	mir-210 (retired record)	DRSC19230	2.19e5	2.18e5
7	Mal-A8	DRSC07234	36633	93157
8	dao	DRSC01960	73287	73897
9	CG13907	DRSC08377	60413	84437
10	CG15096	DRSC06525	97333	83930
11	betaNACtes2	DRSC19792	3.27e5	3.22e5
12	CG14739	DRSC14959	31610	57110
13	mri	DRSC08259	47600	50820
14	MFS12	DRSC07268	56373	67300
15	Rab9D + Rab9Fa + Rab9E	DRSC19853	3.06e5	3.09e5
16	CG9356	DRSC16476	65183	23843
17	yellow-c + CIAPIN1	DRSC01898	60820	65920
18	CG17666	DRSC10276	78837	69800
19	CG17803	DRSC15275	28470	31470
20	Nup54	DRSC07282	69760	62433
21	CG12995	DRSC19515	3.45e5	2.84e5
22	lectin-28C	DRSC03010	39120	67873
23	CG31793	DRSC02605	43930	60787
24	CG4372	DRSC04466	67010	76510
25	PIG-N	DRSC06837	38837	82167
26	qin	DRSC14782	70050	52980
27	CG17108	DRSC02576	41497	64827
28	Cyp313a2	DRSC16625	40797	51533
29	CG34328	DRSC19256	2.59e5	2.79e5
30	Spn47C	DRSC07030	60880	42990
31	Oseg4	DRSC08548	79097	73960
32	Gr39a	DRSC01841	42797	39127
33	Gr39a	DRSC01842	63853	49743
34	CG30001	DRSC05191	66637	79377
